The assay concerns the target Flag-tagged murine Aire (murine) (UniProt Q9Z0E3). In words: co-IP; nuclear extract of 293FT cells expressing Flag-tagged murine Aire (nuclease digestion, then 420 mM NaCl, 5 mM EDTA); 2 ug anti-Flag M2 Ab or control mouse IgG overnight at 4°C, Dynabeads Protein G; washed four times with PBS 0.1% NP-40; western blot. A general note: Immunoblotting shows a protein as a band on a membrane.

Amino acid sequences for entries named in this document (tags omitted).
UniProt Q9Z0E3: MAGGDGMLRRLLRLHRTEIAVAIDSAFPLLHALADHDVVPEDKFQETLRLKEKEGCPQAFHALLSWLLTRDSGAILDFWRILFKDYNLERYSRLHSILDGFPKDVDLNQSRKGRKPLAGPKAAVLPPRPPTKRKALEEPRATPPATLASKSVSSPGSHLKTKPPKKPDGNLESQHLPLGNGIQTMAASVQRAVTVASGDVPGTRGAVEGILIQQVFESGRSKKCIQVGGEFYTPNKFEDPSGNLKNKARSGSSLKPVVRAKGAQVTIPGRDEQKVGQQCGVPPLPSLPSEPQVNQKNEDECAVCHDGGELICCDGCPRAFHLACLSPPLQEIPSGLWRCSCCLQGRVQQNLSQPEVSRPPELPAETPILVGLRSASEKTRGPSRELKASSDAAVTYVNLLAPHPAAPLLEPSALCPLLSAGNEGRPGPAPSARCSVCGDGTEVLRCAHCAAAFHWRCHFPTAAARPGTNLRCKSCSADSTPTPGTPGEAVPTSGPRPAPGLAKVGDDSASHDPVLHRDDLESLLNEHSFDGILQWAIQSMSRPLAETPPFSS
UniProt Q15022: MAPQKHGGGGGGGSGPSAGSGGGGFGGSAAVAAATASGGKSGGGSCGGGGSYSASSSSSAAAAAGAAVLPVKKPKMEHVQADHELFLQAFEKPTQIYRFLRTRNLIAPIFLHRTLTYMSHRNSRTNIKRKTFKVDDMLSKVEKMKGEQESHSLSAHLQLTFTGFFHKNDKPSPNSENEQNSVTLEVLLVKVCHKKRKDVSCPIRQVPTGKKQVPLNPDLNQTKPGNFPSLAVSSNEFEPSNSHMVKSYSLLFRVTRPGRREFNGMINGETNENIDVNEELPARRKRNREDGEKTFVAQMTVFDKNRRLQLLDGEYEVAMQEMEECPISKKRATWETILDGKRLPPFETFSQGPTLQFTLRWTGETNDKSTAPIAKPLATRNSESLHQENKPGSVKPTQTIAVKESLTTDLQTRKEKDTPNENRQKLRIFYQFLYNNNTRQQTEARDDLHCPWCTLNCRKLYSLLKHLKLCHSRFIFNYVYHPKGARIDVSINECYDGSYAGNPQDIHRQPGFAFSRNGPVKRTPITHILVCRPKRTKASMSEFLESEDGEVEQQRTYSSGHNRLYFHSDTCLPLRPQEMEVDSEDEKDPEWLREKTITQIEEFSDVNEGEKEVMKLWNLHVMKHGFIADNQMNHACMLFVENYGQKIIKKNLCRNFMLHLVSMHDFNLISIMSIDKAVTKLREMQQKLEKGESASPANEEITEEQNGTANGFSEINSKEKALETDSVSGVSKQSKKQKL

No constants are given. Whether binding was seen depends on the method and setting. Binding seen in cells or lysates may run through a third protein. Some binding calls cover weakened binding; strength is not graded here.

Consider Suz12 (from UniProt Q15022 1-739), for which the binding result is listed as “binds”.

The values above are taken from publication PMC12005117.
